Measurements published in PubChem BioAssay AID248 (DTP/NCI, 2004).
The list does not hold the whole screen: its compounds were picked by chemical class. Other doses and runs of a compound may be missing. T/C gives the treated animals as a percentage of the vehicle group. Some doses have a count of surviving animals in place of a T/C: the source files T/C as zero there, which appears to mark a toxic dose or a test without result, not a measured value. Some survivor counts are full or nearly so, which does not show that the dose was tolerated: the source hardly ever lists a survival T/C far under the control, and the zero likely stands for such cases as well. Counts of survivors are from the toxicity check (mostly the fifth day) where no day follows; animals may have died later. Schedules are NCI's codes, read here as Q, the interval in days (D) or hours (H), X, the number of doses. Some metal complexes and salts are drawn in pieces, as in the source, so charges may not balance. For survival time, this PubChem deposit counts one and a half times the control or more as active, and values a quarter to a half above the control carry no call in these data; other NCI protocols may use other cut-offs. Some entries were tested several times; the values are given in rising order. Some T/C values are marked as having no survivor count here; that says nothing about deaths at the dose. Some T/C values carry the count of animals alive at the toxicity check (mostly the fifth day); without a count or a note in brackets, all were alive then.

Test system: L1210 leukemia ip in BDF1 mice, survival T/C
Assay: NCI In Vivo Anticancer Drug Screen. Data for tumor model L1210 Leukemia (intraperitoneal) in B6D2F1 (BDF1) mice
Details: T/C endpoint: mean survival time, higher T/C = longer survival
[1] = dose: 50.0 mg/kg/injection, schedule: Q01DX009 (ip), vehicle: saline with Tween-80
[2] = dose: 100.0 mg/kg/injection, schedule: Q04DX003 (ip), vehicle: saline with Tween-80
[3] = dose: 200.0 mg/kg/injection, schedule: Q04DX003 (ip), vehicle: saline with Tween-80
[4] = dose: 400.0 mg/kg/injection, schedule: Q04DX003 (ip), vehicle: saline with Tween-80

**Q.** What does the source list for `CC1=NCC[N-]CCC[N-]CCN=C(C)[CH-]1.F[P-](F)(F)(F)(F)F.[Ni+2]`?
**A.** T/C (dose: 12.5 mg/kg/injection, schedule: Q04DX002 (ip), vehicle: other): 94 % of control; T/C (dose: 25.0 mg/kg/injection, schedule: Q04DX002 (ip), vehicle: other): 105 % of control; T/C (dose: 50.0 mg/kg/injection, schedule: Q04DX002 (ip), vehicle: other): 94 % of control; survivor count (dose: 100.0 mg/kg/injection, schedule: Q04DX002 (ip), vehicle: other): 1 of 3; survivor count (dose: 200.0 mg/kg/injection, schedule: Q04DX002 (ip), vehicle: other): 0 of 3; survivor count (dose: 400.0 mg/kg/injection, schedule: Q04DX002 (ip), vehicle: other): 1 of 3

**Q.** What does the source list for `CC(=O)NCCCCOc1ccc(N)cc1`?
**A.** T/C (dose: 100.0 mg/kg/injection, schedule: Q04DX003 (ip), vehicle: Klucel (hydroxypropylcellulose) (HPC)): 106 % of control [survivor count not shown]; T/C (dose: 200.0 mg/kg/injection, schedule: Q04DX003 (ip), vehicle: Klucel (hydroxypropylcellulose) (HPC)): 98 % of control [survivor count not shown]; T/C (dose: 400.0 mg/kg/injection, schedule: Q04DX003 (ip), vehicle: Klucel (hydroxypropylcellulose) (HPC)): 89 % of control [survivor count not shown]

**Q.** For `ClCCNc1nc2ccc(Cl)cc2c2ccccc12`, which T/C (dose: 1.8 mg/kg/injection, schedule: Q01DX009 (ip), vehicle: Klucel (hydroxypropylcellulose) (HPC)) is on record?
**A.** The T/C was 93 % of control [5 of 6 alive].

**Q.** What about the T/C (dose: 3.7 mg/kg/injection, schedule: Q01DX009 (ip), vehicle: Klucel (hydroxypropylcellulose) (HPC)) of the same compound?
**A.** Its T/C is 96 % of control.

**Q.** What about the T/C (dose: 3.7 mg/kg/injection, schedule: Q04DX003 (ip), vehicle: Klucel (hydroxypropylcellulose) (HPC)) of the same compound?
**A.** Its T/C is 102 % of control.

**Q.** And the T/C (dose: 7.5 mg/kg/injection, schedule: Q01DX009 (ip), vehicle: Klucel (hydroxypropylcellulose) (HPC))?
**A.** Its T/C is 107 % of control.

**Q.** And the T/C (dose: 7.5 mg/kg/injection, schedule: Q04DX003 (ip), vehicle: Klucel (hydroxypropylcellulose) (HPC))?
**A.** The T/C was 102 % of control.

**Q.** And the T/C (dose: 15.0 mg/kg/injection, schedule: Q01DX009 (ip), vehicle: Klucel (hydroxypropylcellulose) (HPC))?
**A.** Its T/C is 109 % of control.

**Q.** And the T/C (dose: 15.0 mg/kg/injection, schedule: Q04DX003 (ip), vehicle: Klucel (hydroxypropylcellulose) (HPC))?
**A.** Its T/C is 102 % of control.

**Q.** What about the survivor count (dose: 75.0 mg/kg/injection, schedule: Q01DX001 (ip), vehicle: carboxymethylcellulose (CMC)) of the same compound?
**A.** Its survivor count is 0 of 6.

**Q.** And the survivor count (dose: 150.0 mg/kg/injection, schedule: Q01DX001 (ip), vehicle: carboxymethylcellulose (CMC))?
**A.** Its survivor count is 0 of 6.

**Q.** What about the survivor count (dose: 300.0 mg/kg/injection, schedule: Q01DX001 (ip), vehicle: carboxymethylcellulose (CMC)) of the same compound?
**A.** The survivor count was 0 of 6.

**Q.** For `S=P(Cl)(Cl)c1ccc(Cl)cc1`, which T/C (dose: 12.5 mg/kg/injection, schedule: Q01DX009 (ip), vehicle: saline with Tween-80) is on record?
**A.** Its T/C is 95 % of control.

**Q.** And the T/C (dose: 25.0 mg/kg/injection, schedule: Q01DX009 (ip), vehicle: saline with Tween-80)?
**A.** The T/C was 95 % of control.

**Q.** And the T/C [1]?
**A.** Its T/C is 95 % of control.

**Q.** And the T/C [2]?
**A.** The T/C was 88 % of control.

**Q.** And the survivor count [3]?
**A.** The survivor count was 3 of 6.

**Q.** And the survivor count [4]?
**A.** The survivor count was 0 of 6.

**Q.** For `COC(=O)C(N)Cc1ccc(N(CCCl)CCCl)cc1` (stereo unspecified), which T/C (dose: 0.88 mg/kg/injection, schedule: Q01DX009 (ip), vehicle: saline) is on record?
**A.** Its T/C is 133 % of control.

**Q.** And the T/C (dose: 0.88 mg/kg/injection, schedule: Q03HX024 (ip), vehicle: saline)?
**A.** Its T/C is 225 % of control.

**Q.** And the T/C (dose: 1.25 mg/kg/injection, schedule: Q01DX001 (ip), vehicle: saline)?
**A.** The T/C was 107 % of control.

**Q.** And the T/C (dose: 1.25 mg/kg/injection, schedule: Q01DX009 (ip), vehicle: saline)?
**A.** The T/C was 126 % of control.

**Q.** And the T/C (dose: 1.3 mg/kg/injection, schedule: Q01DX009 (ip), vehicle: saline)?
**A.** The T/C was 143 % of control.

**Q.** What about the T/C (dose: 1.3 mg/kg/injection, schedule: Q03HX024 (ip), vehicle: saline) of the same compound?
**A.** The T/C was 255 % of control.

**Q.** What about the T/C (dose: 2.0 mg/kg/injection, schedule: Q01DX009 (ip), vehicle: saline) of the same compound?
**A.** Its T/C is 154 % of control.

**Q.** What about the T/C (dose: 2.0 mg/kg/injection, schedule: Q03HX024 (ip), vehicle: saline) of the same compound?
**A.** Its T/C is 321 % of control.

**Q.** And the T/C (dose: 2.5 mg/kg/injection, schedule: Q01DX001 (ip), vehicle: saline)?
**A.** The T/C was 138 % of control.

**Q.** And the T/C (dose: 2.5 mg/kg/injection, schedule: Q01DX009 (ip), vehicle: saline)?
**A.** Its T/C is 142 % of control.

**Q.** And the T/C (dose: 3.0 mg/kg/injection, schedule: Q01DX009 (ip), vehicle: saline)?
**A.** Its T/C is 241 % of control [5 of 6 alive].

**Q.** What about the T/C (dose: 3.0 mg/kg/injection, schedule: Q03HX024 (ip), vehicle: saline) of the same compound?
**A.** Its T/C is 114 % of control.

**Q.** What about the T/C (dose: 4.5 mg/kg/injection, schedule: Q01DX009 (ip), vehicle: saline) of the same compound?
**A.** The T/C was 193 % of control.

**Q.** What about the survivor count (dose: 4.5 mg/kg/injection, schedule: Q03HX024 (ip), vehicle: saline) of the same compound?
**A.** The survivor count was 6 of 6.

**Q.** And the T/C (dose: 5.0 mg/kg/injection, schedule: Q01DX001 (ip), vehicle: saline)?
**A.** The T/C was 136 % of control.

**Q.** What about the T/C (dose: 5.0 mg/kg/injection, schedule: Q01DX009 (ip), vehicle: saline) of the same compound?
**A.** The T/C was 214 % of control.

**Q.** What about the T/C (dose: 6.6 mg/kg/injection, schedule: Q04DX003 (ip), vehicle: saline) of the same compound?
**A.** Its T/C is 181 % of control.

**Q.** What about the T/C (dose: 10.0 mg/kg/injection, schedule: Q01DX001 (ip), vehicle: saline) of the same compound?
**A.** Its T/C is 141 and 177 % of control.

**Q.** What about the T/C (dose: 10.0 mg/kg/injection, schedule: Q01DX009 (ip), vehicle: saline) of the same compound?
**A.** The T/C was 162 % of control.

**Q.** And the T/C (dose: 10.0 mg/kg/injection, schedule: Q04DX003 (ip), vehicle: saline)?
**A.** The T/C was 241 % of control.

**Q.** What about the T/C (dose: 15.0 mg/kg/injection, schedule: Q04DX003 (ip), vehicle: saline) of the same compound?
**A.** Its T/C is 322 % of control.

**Q.** And the T/C (dose: 20.0 mg/kg/injection, schedule: Q01DX001 (ip), vehicle: saline)?
**A.** The T/C was 197 % of control [5 of 6 alive].

**Q.** What about the T/C (dose: 22.5 mg/kg/injection, schedule: Q04DX003 (ip), vehicle: saline) of the same compound?
**A.** The T/C was 121 % of control.

**Q.** And the survivor count (dose: 33.75 mg/kg/injection, schedule: Q04DX003 (ip), vehicle: saline)?
**A.** Its survivor count is 4 of 6.

**Q.** And the survivor count (dose: 40.0 mg/kg/injection, schedule: Q01DX001 (ip), vehicle: saline)?
**A.** Its survivor count is 5 of 6.

**Q.** What about the survivor count (dose: 75.0 mg/kg/injection, schedule: Q01DX001 (ip), vehicle: saline) of the same compound?
**A.** Its survivor count is 2 of 6.

**Q.** What about the survivor count (dose: 150.0 mg/kg/injection, schedule: Q01DX001 (ip), vehicle: saline) of the same compound?
**A.** Its survivor count is 0 of 6.

**Q.** What about the survivor count (dose: 300.0 mg/kg/injection, schedule: Q01DX001 (ip), vehicle: saline) of the same compound?
**A.** The survivor count was 0 of 6.

**Q.** Which results are given for `O=[N+]([O-])c1ccc(Sc2ccc([N+](=O)[O-])cc2[N+](=O)[O-])c([N+](=O)[O-])c1`?
**A.** T/C [1]: 105 % of control [survivor count not shown]; T/C (dose: 100.0 mg/kg/injection, schedule: Q01DX001 (ip), vehicle: Klucel (hydroxypropylcellulose) (HPC)): 92 % of control [survivor count not shown]; T/C (dose: 100.0 mg/kg/injection, schedule: Q01DX009 (ip), vehicle: saline with Tween-80): 94 % of control [survivor count not shown]; T/C (dose: 200.0 mg/kg/injection, schedule: Q01DX001 (ip), vehicle: Klucel (hydroxypropylcellulose) (HPC)): 95 % of control [survivor count not shown]; T/C (dose: 200.0 mg/kg/injection, schedule: Q01DX009 (ip), vehicle: saline with Tween-80): 91 % of control [survivor count not shown]; T/C (dose: 400.0 mg/kg/injection, schedule: Q01DX001 (ip), vehicle: Klucel (hydroxypropylcellulose) (HPC)): 95 % of control [survivor count not shown]

**Q.** With `O=[N+]([O-])c1ccc(N2CCN(c3ccc([N+](=O)[O-])cc3[N+](=O)[O-])CC2)c([N+](=O)[O-])c1` as the compound, how does the T/C (dose: 100.0 mg/kg/injection, schedule: Q04DX002 (ip), vehicle: Klucel (hydroxypropylcellulose) (HPC)) read?
**A.** Its T/C is 104 % of control.

**Q.** And the T/C (dose: 200.0 mg/kg/injection, schedule: Q04DX002 (ip), vehicle: Klucel (hydroxypropylcellulose) (HPC))?
**A.** The T/C was 95 % of control [2 of 3 alive].

**Q.** And the T/C (dose: 400.0 mg/kg/injection, schedule: Q04DX002 (ip), vehicle: Klucel (hydroxypropylcellulose) (HPC))?
**A.** Its T/C is 86 % of control.

**Q.** Which results are given for `O[As](O)O.S=C(S)c1ccccc1S`?
**A.** T/C (dose: 100.0 mg/kg/injection, schedule: Q01DX001 (ip), vehicle: saline): 102 % of control; survivor count (dose: 200.0 mg/kg/injection, schedule: Q01DX001 (ip), vehicle: saline): 3 of 6; survivor count (dose: 400.0 mg/kg/injection, schedule: Q01DX001 (ip), vehicle: saline): 0 of 6

**Q.** With `NC(=O)c1cc(Cl)cc(Cl)c1N1CC[N+](CCCl)=N1.NC(=O)c1cc(Cl)cc(Cl)c1N=NN(CCCl)CCCl` as the compound, how does the T/C [2] read?
**A.** The T/C was 97 % of control.

**Q.** What about the T/C [3] of the same compound?
**A.** Its T/C is 100 % of control.

**Q.** And the T/C [4]?
**A.** The T/C was 106 % of control.

**Q.** What does the source list for `CCCCC(CC)CO[P+](=O)OCC(CC)CCCC` (stereo unspecified)?
**A.** T/C [2]: 94 % of control; T/C [3]: 87 % of control; survivor count [4]: 2 of 6
